Measured values published in patent US6765014B1, “1-Acyl-7-nitroindoline derivatives, their preparation and their use as photocleavable precursors” (Medical Research Council, priority 1999, dated 2004).
For some assays here: At least one read-out could not be matched to a standard name with certainty. For some assays here: At least one compound was matched to its structure with a doubt left.

Experiments:
[1] = Flash photolysis with time-resolved IR measurements, carboxylate formation; type: physicochemical; settings: faster process
Text: Formation of different products in different solvents requires a change of mechanism and there is some precedent for photoreactivity of nitroaryl compounds in aqueous solution that was not observed in organic solvents. […] Second, we have investigated the kinetics of product formation, specifically of the released proton and carboxylate. […] The latter process may correspond with the slow phase of proton release described above. An overlapping band on the high-frequency side of the main 1553 cm^−1 band makes definitive interpretation of the signals uncertain.

[2] = Photolysis and product analysis (HPLC and quantitative amino acid analysis); type: physicochemical; settings: at 38% photolysis
Experimental: Separate solutions of 10 (each 0.50 mM) in 25 mM ammonium phosphate, pH 7.0±1 mM dithiothreitol were irradiated in a 1-mm path length cell for 3 min using light from a mercury arc lamp which passed through Hoya 340 and Schott WG 305 filters before illuminating the cell. The extent of photolysis was determined by reverse-phase HPLC (mobile phase 25 mM Na phosphate, pH 6.0+10% MeOH, 1.5 ml/min). Quantification was based on peak heights compared to those of unphotolyzed controls. Aliquots of the photolyzed solutions were also subjected to quantitative amino acid analysis (see General Procedures).
Photolysis and product analysis for compound 21. A solution (0.5 mM) of 21 in 25 mM ammonium phosphate, pH 7.0 was irradiated as described for compound 10 and the photolyzed solution was quantified by reverse-phase HPLC and amino acid analysis.

Compound	Formation of the carboxylate, t1/2 [1]	Measured recovery of GABA as % of value calculated from extent of photolysis [2]
COC(=O)Cc1cc2c(c([N+](=O)[O-])c1)N(C(=O)CCCCOP(=O)(O)O)CC2 [Compound 9]	~0.00025 s	–
COC(=O)Cc1cc2c(c([N+](=O)[O-])c1)N(C(=O)CCCN)CC2 [Compound 21, Methyl 1-(4-aminobutanoyl)-7-nitroindoline-5-acetate]	–	88%
